{"source": "patent US4372877A", "about": "“Di(acylperoxy)-1,4-cyclohexane dimethanol-bis-carbonates” (priority 1981, dated 1983)", "key": {"[1]": {"experiment": "Hot Block Gel Tests With Polyester Resin", "conditions": "Table VI; block 180 °F, 1% wt peroxide (100% purity basis)", "excerpt": "As mentioned above, the new molecules can be used for curing of polyester resins and this utility is illustrated in Tables V and VI below. Typical prior art peroxy dicarbonates and carbonates of the prior art are included for comparison.\nHot Block Gel Tests With Polyester Resin\nResin: MR 941 (U.S.S. Chemical - orthophthalic)\nConcentrations of peroxide adjusted to 100% purity basis, 1% wt"}, "[2]": {"experiment": "Ten-hour half-life temperature (0.1 M in benzene)", "assay_type": "physicochemical", "excerpt": "Table I provides the ten-hour half-life of the compounds of the instant invention synthesized in Examples 1-3.\nPeroxide (0.1 M in benzene)"}, "[3]": {"experiment": "Vinyl chloride suspension polymerization (% conversion)", "description": "As mentioned, the instant bis-carbonates are useful for the initiation of monomers having polymerizable ethylenic or vinyl unsaturation, such as ethylene, styrene, methyl methacrylate and vinyl chloride and copolymers thereof. The data was generated with suspension polymerization performed in 12 ounce pop bottles using uninhibited monomer. Duplicate bottles were analyzed at each time interval for which data is listed. Bottles were frozen before venting off of excess monomer. Mixing speed of the pop bottles was 42 rpm. The water to vinyl chloride monomer ratio was 2.50. Each pop bottle contained 0.35 gms Dow Methocel 90 HG, 100 cps suspension agent per 100 gms vinyl chloride monomer."}}, "note": "At least one compound was matched to its structure with a doubt left.", "data": [{"smiles": "O=C(OCC1CCC(COC(=O)OOC(=O)c2ccccc2)CC1)OOC(=O)c1ccccc1", "note": "(stereo not drawn) [BPCD, di(benzoylperoxy)-1,4-cyclohexanedimethanol bis-carbonate]", "values": [{"measurement": "Exotherm Time", "setting": "[1]", "value": 5.28, "unit": "min"}, {"measurement": "Gel Time", "setting": "[1]", "value": 4.28, "unit": "min"}, {"measurement": "Ten-Hour Half-Life Temperature", "setting": "[2]", "value": 52.3, "unit": "°C"}, {"measurement": "% Conversion", "setting": "[3]; 55 °C, 5.5 Hrs., 1.72 × 10^-4 moles/100g VCM (APCD 0.060, BPCD 0.081 % wt)", "value": 55.7, "unit": "%"}, {"measurement": "% Conversion", "setting": "[3]; 55 °C, 5.5 Hrs., 2.01 × 10^-4 moles/100g VCM (APCD 0.070, LPCD 0.126, BPCD 0.095 % wt)", "value": 62.1, "unit": "%"}, {"measurement": "% Conversion", "setting": "[3]; 55 °C, 5.5 Hrs., 2.30 × 10^-4 moles/100g VCM (APCD 0.080, LPCD 0.145, BPCD 0.109 % wt)", "value": 73.6, "unit": "%"}, {"measurement": "% Conversion", "setting": "[3]; 60 °C, 5.0 Hrs., 0.85 × 10^-4 moles/100g VCM (APCD 0.030, BPCD 0.040 % wt)", "value": 43.4, "unit": "%"}, {"measurement": "% Conversion", "setting": "[3]; 60 °C, 5.0 Hrs., 1.15 × 10^-4 moles/100g VCM (APCD 0.040, LPCD 0.072, BPCD 0.054 % wt)", "value": 58.6, "unit": "%"}, {"measurement": "% Conversion", "setting": "[3]; 60 °C, 5.0 Hrs., 1.40 × 10^-4 moles/100g VCM (BPCD 0.066 % wt)", "value": 72.4, "unit": "%"}]}]}
